Laboratory results: publication PMC7480108
No constants are given. Whether binding was seen depends on the method and setting. In cells and extracts the contact can be indirect. Here binding means that the protein was enriched with, or labelled near, the bait; the list need not be complete.

Biological target: TKS5^GFP (human)
Assay: affinity purification with mass spectrometry; GFP-Trap (anti-GFP nanobody magnetic agarose beads) from NP-40 lysates of MDA-MB-231 cells stably expressing TKS5^GFP, plated 90 min on type I collagen; cells without TKS5^GFP as negative control; biological triplicate; on-bead digestion, LC-MS/MS

B1: endogenous FGD1 (faciogenital dysplasia protein 1) (protein, UniProt P98174 1-961)
chain: MHGHRAPGGAGPSEPEHPATNPPGAAPPACADSDPGASEPGLLARRGSGSALGGPLDPQFVGPSDTSLGAAPGHRVLPCGPSPQHHRALRFSYHLEGSQPRPGLHQGNRILVKSLSLDPGQSLEPHPEGPQRLRSDPGPPTETPSQRPSPLKRAPGPKPQVPPKPSYLQMPRMPPPLEPIPPPPSRPLPADPRVAKGLAPRAEASPSSAAVSSLIEKFEREPVIVASDRPVPGPSPGPPEPVMLPQPTSQPPVPQLPEGEASRCLFLLAPGPRDGEKVPNRDSGIDSISSPSNSEETCFVSDDGPPSHSLCPGPPALASVPVALADPHRPGSQEVDSDLEEEDDEEEEEEKDREIPVPLMERQESVELTVQQKVFHIANELLQTEKAYVSRLHLLDQVFCARLLEEARNRSSFPADVVHGIFSNICSIYCFHQQFLLPELEKRMEEWDRYPRIGDILQKLAPFLKMYGEYVKNFDRAVELVNTWTERSTQFKVIIHEVQKEEACGNLTLQHHMLEPVQRIPRYELLLKDYLLKLPHGSPDSKDAQKSLELIATAAEHSNAAIRKMERMHKLLKVYELLGGEEDIVSPTKELIKEGHILKLSAKNGTTQDRYLILFNDRLLYCVPRLRLLGQKFSVRARIDVDGMELKESSNLNLPRTFLVSGKQRSLELQARTEEEKKDWVQAINSTLLKHEQTLETFKLLNSTNREDEDTPPNSPNVDLGKRAPTPIREKEVTMCMRCQEPFNSITKRRHHCKACGHVVCGKCSEFRARLVYDNNRSNRVCTDCYVALHGVPGSSPACSQHTPQRRRSILEKQASVAAENSVICSFLHYMEKGGKGWHKAWFVVPENEPLVLYIYGAPQDVKAQRSLPLIGFEVGPPEAGERPDRRHVFKITQSHLSWYFSPETEELQRRWMAVLGRAGRGDTFCPGPTLSEDREMEEAPVAALGATAEPPESPQTRDKT
binding: binds

B2: monocarboxylate transporter 4 (protein, UniProt O15427 1-465)
chain: MGGAVVDEGPTGVKAPDGGWGWAVLFGCFVITGFSYAFPKAVSVFFKELIQEFGIGYSDTAWISSILLAMLYGTGPLCSVCVNRFGCRPVMLVGGLFASLGMVAASFCRSIIQVYLTTGVITGLGLALNFQPSLIMLNRYFSKRRPMANGLAAAGSPVFLCALSPLGQLLQDRYGWRGGFLILGGLLLNCCVCAALMRPLVVTAQPGSGPPRPSRRLLDLSVFRDRGFVLYAVAASVMVLGLFVPPVFVVSYAKDLGVPDTKAAFLLTILGFIDIFARPAAGFVAGLGKVRPYSVYLFSFSMFFNGLADLAGSTAGDYGGLVVFCIFFGISYGMVGALQFEVLMAIVGTHKFSSAIGLVLLMEAVAVLVGPPSGGKLLDATHVYMYVFILAGAEVLTSSLILLLGNFFCIRKKPKEPQPEVAAAEEEKLHKPPADSGVDLREVEHFLKAEPEKNGEVVHTPETSV
binding: binds
